Measured values published in PubChem BioAssay AID2685 (National Center for Advancing Translational Sciences (NCATS), 2010).
Some of the results follow. Shown are side measurements of this screen, not its main read-out; they come without a call. Most of these compounds were active or inconclusive in the main read-out, so they are no random draw. Words in brackets tell the shape of the fitted curve; partial curves, single points and poor fits give uncertain potencies.

Experiment: qHTS Assay for Lipid Storage Modulators in Drosophila S3 Cells;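 for cell number change: cells counted by Cell Tracker Red CMTPX staining in the red channel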
Conditions: BODIPY lipid droplet fluorescence, 18-24 h; for cell number change: measured here: cell count max response, cells fed with added oleic acid
Method in brief: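 Laser-scanning cytometry quantifies lipid droplet accumulation (500–530 nm total intensity; droplet/cell object ratio) in oleic acid-fed (400 uM added) Drosophila S3 cells treated with a concentration series. 20 uM Triacsin C defined 100% inhibition.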

[1] = measured here: lipid fluorescence (Fed channel) AC50, cells fed with added oleic acid
[2] = measured here: cell number channel AC50, cells fed with added oleic acid

O=C(NCc1ccc(Cl)cc1)c1ccc(OCC2CCCO2)cc1 (stereo not given)
cell number change: 20.7%
AC50 [1]: 9.2 µM [rising, partial curve]

Cc1ccc2nc(NC(=O)c3cccc(-c4cc5ccccc5oc4=O)c3)sc2c1
cell number change: 9.9%
AC50 [2]: 3.26 µM [rising, single point]

COc1ccccc1N1CCN(C(c2ccc(Cl)cc2)c2nnnn2C(C)(C)C)CC1 (stereo not given)
cell number change: -43.9%
AC50 [2]: 1.46 µM [falling, full curve]
AC50 [1]: 29.1 µM [falling, partial curve]

S=C1SCN(Cc2cccnc2)CN1Cc1cccnc1
cell number change: -15.8%
AC50 [2]: 0.731 µM [falling, full curve, poor fit]
AC50 [1]: 0.00517 µM [falling, full curve, poor fit]

O=C(CCNC(=O)c1ccc(Br)cc1)NCCCSc1ccccc1
cell number change: 14.1%

O=C(NCc1ccco1)C(c1ccccc1)N(Cc1cccnc1)C(=O)Cn1nnc2ccccc21 (stereo not given)
cell number change: -5.45%
AC50 [1]: 0.731 µM [rising, full curve]

Nn1c(SCCOc2ccccc2)nnc1-c1cccnc1
cell number change: 17.2%
AC50 [1]: 5.17 µM [rising, partial curve, poor fit]

CN(C)/C=C1\SC(=S)N(c2ccc(Br)cc2)C1=O
cell number change: -95.3%
AC50 [2]: 29.1 µM [falling, single point]
AC50 [1]: 23.1 µM [falling, partial curve]

O=C(Nc1cccc(F)c1)C1CCN(C(=O)Cc2ccccc2)CC1
cell number change: 7.74%
AC50 [1]: 29.1 µM [rising, single point]

N#C/C(=C(/O)CCl)c1nnc2n1CCCCC2
cell number change: -24.6%
AC50 [2]: 6.51 µM [falling, single point]
AC50 [1]: 6.51 µM [falling, single point]

Cc1ccccc1OCCC(=O)OCC(=O)NC1CCCCC1
cell number change: 4.34%
AC50 [1]: 29.1 µM [falling, single point]

Cc1ccc(NS(=O)(=O)c2ccc(NC(=O)c3cccc(NC(=O)C(C)C)c3)cc2)cc1
cell number change: 11.9%
AC50 [1]: 29.1 µM [rising, single point]

CC(C)C(C(=O)NCC1CCCO1)N(Cc1ccccc1)C(=O)CNS(=O)(=O)c1ccccc1 (stereo not given)
cell number change: -3.33%
AC50 [1]: 0.82 µM [falling, single point]

COc1ccc(S(=O)(=O)N2CCCCCC2)cc1NC(=O)Cc1cc(OC)c(OC)c(OC)c1
AC50 [2]: 0.651 µM [rising, partial curve, poor fit]

COc1ccccc1C(=O)Nc1nc(-c2cccs2)c(NC(C)=O)s1
cell number change: -51.7%
AC50 [2]: 29.1 µM [falling, single point]

CCN1CCS/C1=C/C=C/C1=[N+](CC)CCS1
cell number change: -58.6%
AC50 [2]: 6.51 µM [falling, full curve]
AC50 [1]: 4.61 µM [falling, full curve]

CCN(CC(=O)Nc1ccccc1OC)C(=O)c1ccc2[nH]c3c(c2c1)CC(C)CC3 (stereo not given)
cell number change: -8.06%
AC50 [2]: 2.91 µM [rising, single point]
AC50 [1]: 3.66 µM [rising, partial curve, poor fit]

COc1cc(C(=S)N2CCCC2)cc(OC)c1O
cell number change: 21.5%
AC50 [1]: 2.06 µM [falling, partial curve]

COCCN1C2=C(C(=O)CC(C)(C)C2)C(c2ccc(OC)c(OC)c2)C2=C1CC(C)(C)CC2=O
cell number change: 14.7%

CCN(C(=O)c1cc2c(C)nc3ccccc3c2o1)c1cc(Cl)ccc1OC
cell number change: 26.5%
AC50 [2]: 0.411 µM [rising, full curve, poor fit]
AC50 [1]: 0.461 µM [rising, full curve, poor fit]

CC1CN(S(=O)(=O)c2ccc(NC(=O)c3cc(-c4ccccc4O)n[nH]3)cc2)CC(C)O1 (stereo not given)
cell number change: -41.3%
AC50 [2]: 32.6 µM [falling, partial curve, poor fit]
AC50 [1]: 32.6 µM [falling, partial curve, poor fit]

CCN(CC)C(=O)CSc1nnc(NC(=O)CCc2ccccc2)s1
cell number change: 75.8%
AC50 [2]: 16.4 µM [rising, single point]

CC(=O)c1ccc(N2CCN(C(=O)C3(S(=O)(=O)c4ccc(Cl)cc4)CC3)CC2)cc1
cell number change: -12.7%
AC50 [1]: 10.3 µM [falling, partial curve, poor fit]

Cn1c(SCC(=O)Nc2ccc(N3CCOCC3)cc2)nnc1-c1ccccc1
cell number change: 6.95%

Cc1nnc(NC(=O)CSc2nccn2Cc2ccc(F)cc2)s1
cell number change: 12.5%
AC50 [1]: 18.4 µM [rising, partial curve]

Cc1ccccc1S(=O)(=O)N1CCN(C)CC1
cell number change: 11%
AC50 [1]: 29.1 µM [rising, single point]

COC(=O)Nc1ccc(S(=O)(=O)N(CCO)CCO)cc1
cell number change: -29.3%
AC50 [2]: 0.146 µM [falling, full curve, poor fit]

CC(=O)N1CCN(Cc2nc3cc(NS(C)(=O)=O)ccc3n2C)CC1
cell number change: -3.57%
AC50 [1]: 0.651 µM [falling, full curve]

CC(C)CCNC(=O)NC(=O)Cn1cc(C(F)(F)F)ccc1=O
cell number change: 7.64%
AC50 [1]: 20.6 µM [falling, single point]

COC(=O)c1cc(S(=O)(=O)C(C)C)c(S(C)=O)s1 (stereo not given)
cell number change: -52%

CCOC(=O)c1c(C)[nH]c(C(=O)CSc2ccc(Cl)cc2)c1C
cell number change: -36.2%
AC50 [2]: 32.6 µM [falling, single point]
AC50 [1]: 0.411 µM [rising, full curve]

COc1cc(S(=O)(=O)Nc2ccc(C)cc2)ccc1NC(=O)c1ccncc1
cell number change: -13.5%
AC50 [1]: 18.4 µM [falling, single point]

COc1ccc(S(=O)(=O)N2CCc3ccccc3C2)cc1OC
cell number change: 25%
AC50 [1]: 32.6 µM [rising, single point]

Cc1cc(C)c(S(=O)(=O)N2CCOC2CNC(=O)C(=O)NCCN(C)C)c(C)c1 (stereo not given)
cell number change: 8.11%

O=C(O)CCN1C(=O)c2ccccc2C1=O
cell number change: -121%
AC50 [2]: 16.4 µM [falling, partial curve]
AC50 [1]: 0.651 µM [falling, full curve]

Cc1ccc(S(=O)(=O)Nc2ccccc2C(O)c2ccccc2)cc1 (stereo not given)
cell number change: -30.3%
AC50 [2]: 29.1 µM [falling, single point]
AC50 [1]: 29.1 µM [falling, single point]

Cc1nc(C)c(C(=O)N/N=C/c2cn(C)c3ccccc23)s1
cell number change: -15%
AC50 [2]: 1.84 µM [rising, partial curve]
AC50 [1]: 1.64 µM [rising, partial curve]

COC(=O)C1=CNC=C(C(=O)OC)C1c1ccccc1Cl
cell number change: 7.87%

Cc1cc(C)c2sc(N(CCCN(C)C)C(=O)c3ccc(S(=O)(=O)N4CCc5ccccc5C4)cc3)nc2c1
cell number change: -90%
AC50 [2]: 6.51 µM [falling, full curve]
AC50 [1]: 0.411 µM [falling, single point]

COc1cc(-c2c(-c3cc(OC)c(OC)c(OC)c3)noc2C)ccc1F
cell number change: -5.99%
AC50 [1]: 8.2 µM [rising, partial curve]

CC(=O)c1cc2c(cc1NC(=O)CN1CCC(Cc3ccccc3)CC1)OCO2
cell number change: 17.6%
AC50 [1]: 4.61 µM [rising, full curve]

Cc1nc2ncnn2c(C)c1C/C=C/c1ccccc1
cell number change: 6.52%

CCN(CC)CCCN(Cc1cc2cc3c(cc2[nH]c1=O)OCO3)C(=S)Nc1ccc(OC)cc1
cell number change: 17.9%
AC50 [1]: 0.82 µM [rising, full curve, poor fit]

CCC(C(=O)OCC(=O)NC(=O)c1ccccc1OC)c1ccccc1 (stereo not given)
cell number change: -9.08%

O=C(Nc1ccccc1)NC1(C(=O)NCCCN2CCOCC2)CCCCC1
cell number change: -19.1%
AC50 [1]: 3.26 µM [falling, full curve]

Cc1ccn2cc(C(=O)N3CCN(c4cnn(-c5ccccc5)c(=O)c4Cl)CC3)nc2c1
cell number change: 17.3%
AC50 [1]: 1.46 µM [rising, partial curve]

Cc1cc(Br)cn2ccnc12
cell number change: 1.23%
AC50 [1]: 29.1 µM [rising, partial curve, poor fit]

COc1ccc(OC)c(S(=O)(=O)Nc2c(C)n(C)n(-c3ccccc3)c2=O)c1
cell number change: 15.4%

CN1N=C(C(=O)N2CCCC(N3CCN(c4ccc(F)cc4)CC3)C2)CCC1=O (stereo not given)
cell number change: -8.99%
AC50 [1]: 0.082 µM [rising, full curve, poor fit]

CCOC(=O)c1ccc(CSc2nnc(-c3ccncc3)n2N)cc1
cell number change: 40.2%
AC50 [2]: 1.46 µM [rising, full curve]
AC50 [1]: 29.1 µM [falling, single point]

Cc1ccc2nc(SCC(=O)Nc3ccc(F)cc3F)[nH]c2c1
cell number change: -46.1%
AC50 [2]: 0.146 µM [falling, full curve, poor fit]
AC50 [1]: 29.1 µM [falling, single point]

CCc1ccc(NC(=O)c2cnn(-c3ccccc3)c2C)cc1
cell number change: 9.86%
AC50 [1]: 0.82 µM [rising, full curve, poor fit]

Cc1ccn(C(=O)c2cc3c(C)nn(-c4ccccc4)c3s2)n1
cell number change: -26.6%
AC50 [2]: 0.0058 µM [falling, full curve, poor fit]

Cc1[nH]nc(N=CC2=C(O)CC(C)(C)CC2=O)c1-c1ccc(Cl)cc1
cell number change: -118%
AC50 [2]: 16.4 µM [falling, single point]
AC50 [1]: 29.1 µM [falling, single point]

Cc1cccc(N2CCN(C(=O)C3CCC(=O)N(Cc4ccccc4F)C3)CC2)c1C (stereo not given)
cell number change: -4.53%
AC50 [1]: 14.6 µM [falling, single point]

O=C(NNc1ccc(-c2csnn2)cc1)c1cc(Cl)cc(Cl)c1
cell number change: 4.15%
AC50 [1]: 2.59 µM [rising, single point]

Cc1ccc2nc(N(CCCN(C)C)C(=O)c3ccc4c(c3)CCCC4)sc2c1
cell number change: -60.1%
AC50 [2]: 18.4 µM [falling, single point]
